Reference: PubChem BioAssay AID1259308 (NCATS, 2017)
The deposit covers about 59,000 reagents; below is an unselected part. Over the whole deposit, about 1,510 (2.6%) are marked active. 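Calls use total luciferase alone and ignore viability, so some active siRNAs may act by altering cell number.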 A number with no mark means an inactive call. The numbers tell different reagents against one gene apart. Not all columns of the deposit are shown.

Assay: 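Candidate targets for better recombinant protein yield in mammalian cells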 (primary screen)
Cells: human HEK293 embryonic kidney cells stably expressing firefly luciferase (HEK-CMV-Luc2-Hygro)
Reagent: single siRNA against human genes, 0.8 pmol siRNA per well
Duration: 72 h
Read-out: 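Reporter luminescence and viable-cell signal on separate replicate plates, given as percent of non-targeting control and median/MAD z-scores, plus per-cell luciferase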
Reading the numbers: total luciferase, z-score: higher = more reporter protein produced
Rule for the call: 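Active when the median/MAD z-score for overall luciferase is greater than 3; a gene was taken forward for validation with new siRNAs if at least two of its three siRNAs passed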
Meaning of the calls: active = raised luciferase; inactive = no rise

LRRC39 #1
- total luciferase, z-score: 1.02

LRRC39 #2
- total luciferase, z-score: 0.674

LRRC39 #3
- total luciferase, z-score: 1.14

ZNF735 #1
- total luciferase, z-score: -0.0404

ZNF735 #2
- total luciferase, z-score: -0.0536

ZNF735 #3
- total luciferase, z-score: 1.57

ZNF735 #4
- total luciferase, z-score: -2.58

ZNF735 #5
- total luciferase, z-score: 1.65

ZNF735 #6
- total luciferase, z-score: 0.197

DMAC1 #1
- total luciferase, z-score: -2.33

DMAC1 #2
- total luciferase, z-score: -0.029

DMAC1 #3
- total luciferase, z-score: 0.561

4 entries already listed, arranged by “total luciferase, z-score”, high to low.
ZNF735 #5
- total luciferase, z-score: 1.65

ZNF735 #6
- total luciferase, z-score: 0.197

DMAC1 #2
- total luciferase, z-score: -0.029

DMAC1 #1
- total luciferase, z-score: -2.33

Further records follow:
POGLUT3 #1
- total luciferase, z-score: 0.0109

POGLUT3 #2
- total luciferase, z-score: -0.961

POGLUT3 #3
- total luciferase, z-score: 0.0331

TNC #1
- total luciferase, z-score: 0.785

TNC #2
- total luciferase, z-score: -0.0244

TNC #3
- total luciferase, z-score: 0.582

RPL39 #1
- total luciferase, z-score: -2.61

RPL39 #2
- total luciferase, z-score: -2.34

RPL39 #3
- total luciferase, z-score: -1.53

BOLA3 #1
- total luciferase, z-score: -0.172

BOLA3 #2
- total luciferase, z-score: -0.28

BOLA3 #3
- total luciferase, z-score: -0.292

SDR9C7 #1
- total luciferase, z-score: -0.831

SDR9C7 #2
- total luciferase, z-score: 1.84

SDR9C7 #3
- total luciferase, z-score: -0.0846

CFAP263 #1
- total luciferase, z-score: -1.47

CFAP263 #2
- total luciferase, z-score: 0.799

CFAP263 #3
- total luciferase, z-score: -0.444

PIGL #1
- total luciferase, z-score: -1.43

PIGL #2
- total luciferase, z-score: 0.44

PIGL #3
- total luciferase, z-score: -2.23
